Experimental data: publication PMC5669500, “Scaffolding the cup-shaped double membrane in autophagy” (PLoS Computational Biology, 2017)
Results are given in words; binding and its absence hold for the method and conditions named. Some results given as binding are weak or reduced against the parent protein; the word gives no strength. Tags and fused reporters may be left off the sequences shown.

T1: His6-Atg29 (Saccharomyces cerevisiae) (UniProt Q12092)
T1 sequence: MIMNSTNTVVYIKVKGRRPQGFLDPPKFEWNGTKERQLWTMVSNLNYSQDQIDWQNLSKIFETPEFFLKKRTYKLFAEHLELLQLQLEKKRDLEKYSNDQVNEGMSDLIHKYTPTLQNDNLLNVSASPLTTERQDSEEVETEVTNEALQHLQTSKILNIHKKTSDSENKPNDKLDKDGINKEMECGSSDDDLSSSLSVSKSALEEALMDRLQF

T2: Atg31 (Saccharomyces cerevisiae) (UniProt Q12421)
T2 sequence: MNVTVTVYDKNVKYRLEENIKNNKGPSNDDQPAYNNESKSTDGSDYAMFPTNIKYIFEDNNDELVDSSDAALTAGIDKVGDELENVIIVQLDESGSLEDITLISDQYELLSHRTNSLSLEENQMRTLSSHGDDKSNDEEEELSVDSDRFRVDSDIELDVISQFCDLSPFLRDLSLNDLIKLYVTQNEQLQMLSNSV


Assays:
[1] = target: T1, His6-Atg29 (Saccharomyces cerevisiae); experiment: SEC; ternary complex co-expressed in E. coli, captured on Ni-NTA by His6-Atg29, then Superose 6 10/300GL in 20 mM Tris pH 8, 200 mM NaCl, 0.1 mM TCEP; peak fractions analysed by SDS-PAGE; both purified
[2] = target: T2, Atg31 (Saccharomyces cerevisiae); experiment: as above

Row | binding [1] | binding [2] | Binder
1 | binds | – | Atg31 (protein, UniProt Q12421 1-196) MNVTVTVYDKNVKYRLEENIKNNKGPSNDDQPAYNNESKSTDGSDYAMFPTNIKYIFEDNNDELVDSSDAALTAGIDKVGDELENVIIVQLDESGSLEDITLISDQYELLSHRTNSLSLEENQMRTLSSHGDDKSNDEEEELSVDSDRFRVDSDIELDVISQFCDLSPFLRDLSLNDLIKLYVTQNEQLQMLSNSV
2 | binds | binds | Atg17, wild type (natural protein, Saccharomyces cerevisiae, UniProt Q06410 1-417, looked up, Atg17, Saccharomyces cerevisiae; The Atg17 chain of m1; source: E. coli BL21 (DE3), co-expressed with Atg31 and His6-Atg29 from pST39, purified (Ni-NTA, Superose 6)) MNEADVTKFVNNARKTLTDAQLLCSSANLRIVDIKKKLSSWQLSISKLNFLIVGLRQQGKFLYTILKEGIGTKLIQKQWNQAVLVVLVDEMKYWQYEITSKVQRLDGIVNELSISEKDDTDPSKLGDYISRDNVNLLNDKLKEVPVIERQIENIKLQYENMVRKVNKELIDTKLTDVTQKFQSKFGIDNLMETNVAEQFSRELTDLEKDLAEIMNSLTQHFDKTLLLQDKKIDNDEREELFKVVQGDDKELYNIFKTLHEVIDDVDKTILNLGQFLQAKIKEKTELHSEVSEIINDFNRNLEYLLIFKDISNLIDSFKNSCTQDIQTTKELCEFYDNFEESYGNLVLEAKRRKDVANRMKTILKDCEKQLQNLDAQDQEERQNFIAENGTYLPETIWPGKIDDFSSLYTLNYNVKNP
3 | binds | binds | Atg17 mutant M5 (K92D/L141D) (natural protein, Saccharomyces cerevisiae, UniProt Q06410 1-417, looked up, Atg17, Saccharomyces cerevisiae; The Atg17 chain of m6; source: E. coli BL21 (DE3), co-expressed with Atg31 and His6-Atg29 from pST39, purified (Ni-NTA, Superose 6)) MNEADVTKFVNNARKTLTDAQLLCSSANLRIVDIKKKLSSWQLSISKLNFLIVGLRQQGKFLYTILKEGIGTKLIQKQWNQAVLVVLVDEMDYWQYEITSKVQRLDGIVNELSISEKDDTDPSKLGDYISRDNVNLLNDKDKEVPVIERQIENIKLQYENMVRKVNKELIDTKLTDVTQKFQSKFGIDNLMETNVAEQFSRELTDLEKDLAEIMNSLTQHFDKTLLLQDKKIDNDEREELFKVVQGDDKELYNIFKTLHEVIDDVDKTILNLGQFLQAKIKEKTELHSEVSEIINDFNRNLEYLLIFKDISNLIDSFKNSCTQDIQTTKELCEFYDNFEESYGNLVLEAKRRKDVANRMKTILKDCEKQLQNLDAQDQEERQNFIAENGTYLPETIWPGKIDDFSSLYTLNYNVKNP
4 | binds | binds | Atg17 mutant M2 (K318D/K329D/Y93E/W94E) (natural protein, Saccharomyces cerevisiae, UniProt Q06410 1-417, looked up, Atg17, Saccharomyces cerevisiae; The Atg17 chain of m3; source: E. coli BL21 (DE3), co-expressed with Atg31 and His6-Atg29 from pST39, purified (Ni-NTA, Superose 6)) MNEADVTKFVNNARKTLTDAQLLCSSANLRIVDIKKKLSSWQLSISKLNFLIVGLRQQGKFLYTILKEGIGTKLIQKQWNQAVLVVLVDEMKEEQYEITSKVQRLDGIVNELSISEKDDTDPSKLGDYISRDNVNLLNDKLKEVPVIERQIENIKLQYENMVRKVNKELIDTKLTDVTQKFQSKFGIDNLMETNVAEQFSRELTDLEKDLAEIMNSLTQHFDKTLLLQDKKIDNDEREELFKVVQGDDKELYNIFKTLHEVIDDVDKTILNLGQFLQAKIKEKTELHSEVSEIINDFNRNLEYLLIFKDISNLIDSFDNSCTQDIQTTDELCEFYDNFEESYGNLVLEAKRRKDVANRMKTILKDCEKQLQNLDAQDQEERQNFIAENGTYLPETIWPGKIDDFSSLYTLNYNVKNP
5 | binds | binds | Atg17 mutant M4 (K164D/K173D/R299D) (natural protein, Saccharomyces cerevisiae, UniProt Q06410 1-417, looked up, Atg17, Saccharomyces cerevisiae; The Atg17 chain of m5; source: E. coli BL21 (DE3), co-expressed with Atg31 and His6-Atg29 from pST39, purified (Ni-NTA, Superose 6)) MNEADVTKFVNNARKTLTDAQLLCSSANLRIVDIKKKLSSWQLSISKLNFLIVGLRQQGKFLYTILKEGIGTKLIQKQWNQAVLVVLVDEMKYWQYEITSKVQRLDGIVNELSISEKDDTDPSKLGDYISRDNVNLLNDKLKEVPVIERQIENIKLQYENMVRDVNKELIDTDLTDVTQKFQSKFGIDNLMETNVAEQFSRELTDLEKDLAEIMNSLTQHFDKTLLLQDKKIDNDEREELFKVVQGDDKELYNIFKTLHEVIDDVDKTILNLGQFLQAKIKEKTELHSEVSEIINDFNDNLEYLLIFKDISNLIDSFKNSCTQDIQTTKELCEFYDNFEESYGNLVLEAKRRKDVANRMKTILKDCEKQLQNLDAQDQEERQNFIAENGTYLPETIWPGKIDDFSSLYTLNYNVKNP
6 | binds | binds | Atg17 mutant M1 (K318D/Q326D/K329D) (natural protein, Saccharomyces cerevisiae, UniProt Q06410 1-417, looked up, Atg17, Saccharomyces cerevisiae; The Atg17 chain of m2; source: E. coli BL21 (DE3), co-expressed with Atg31 and His6-Atg29 from pST39, purified (Ni-NTA, Superose 6)) MNEADVTKFVNNARKTLTDAQLLCSSANLRIVDIKKKLSSWQLSISKLNFLIVGLRQQGKFLYTILKEGIGTKLIQKQWNQAVLVVLVDEMKYWQYEITSKVQRLDGIVNELSISEKDDTDPSKLGDYISRDNVNLLNDKLKEVPVIERQIENIKLQYENMVRKVNKELIDTKLTDVTQKFQSKFGIDNLMETNVAEQFSRELTDLEKDLAEIMNSLTQHFDKTLLLQDKKIDNDEREELFKVVQGDDKELYNIFKTLHEVIDDVDKTILNLGQFLQAKIKEKTELHSEVSEIINDFNRNLEYLLIFKDISNLIDSFDNSCTQDIDTTDELCEFYDNFEESYGNLVLEAKRRKDVANRMKTILKDCEKQLQNLDAQDQEERQNFIAENGTYLPETIWPGKIDDFSSLYTLNYNVKNP
7 | binds | binds | Atg17 mutant M3 (K8D/R14D/K249D) (natural protein, Saccharomyces cerevisiae, UniProt Q06410 1-417, looked up, Atg17, Saccharomyces cerevisiae; The Atg17 chain of m4; source: E. coli BL21 (DE3), co-expressed with Atg31 and His6-Atg29 from pST39, purified (Ni-NTA, Superose 6)) MNEADVTDFVNNADKTLTDAQLLCSSANLRIVDIKKKLSSWQLSISKLNFLIVGLRQQGKFLYTILKEGIGTKLIQKQWNQAVLVVLVDEMKYWQYEITSKVQRLDGIVNELSISEKDDTDPSKLGDYISRDNVNLLNDKLKEVPVIERQIENIKLQYENMVRKVNKELIDTKLTDVTQKFQSKFGIDNLMETNVAEQFSRELTDLEKDLAEIMNSLTQHFDKTLLLQDKKIDNDEREELFKVVQGDDDELYNIFKTLHEVIDDVDKTILNLGQFLQAKIKEKTELHSEVSEIINDFNRNLEYLLIFKDISNLIDSFKNSCTQDIQTTKELCEFYDNFEESYGNLVLEAKRRKDVANRMKTILKDCEKQLQNLDAQDQEERQNFIAENGTYLPETIWPGKIDDFSSLYTLNYNVKNP
